Laboratory results taken from patent US6489098B1, “Means and methods for monitoring nucleoside reverse transcriptase inhibitor antiretroviral therapy and guiding therapeutic decisions in the treatment of HIV/AIDS” (ViroLogic, Inc., priority 1998, dated 2002).
Where “and” joins values, the source holds several entries; their conditions need not be identical. Equal entries are not always repeated. For part of these data: At least one read-out could not be matched to a standard name with certainty. For part of these data: For at least one compound, name, drawing or mass did not settle the structure.

What was measured:
Type in all cases: cell-based
[1] = test system: HIV-1 RT mutant resistance test vector M41L+A62V+T69SSA+M184V+T215Y; assay: Phenotypic susceptibility assay, site directed RTV M41L+A62V+T69SSA+M184V+T215Y; settings: RTV with M41L+A62V+T69SSA+M184V+T215Y; addition of M184V to the 4 mutations
Experimental: (§1) Resistance tests were carried out with resistance test vectors using two host cell types. Resistance test vector viral particles were produced by a first host cell (the resistance test vector host cell) that was prepared by transfecting a packaging host cell with the resistance test vector and the packaging expression vector. The resistance test vector viral particles were then used to infect a second host cell (the target host cell) in which the expression of the indicator gene is measured.
The resistance test vectors containing a functional luciferase gene cassette were constructed and host cells were transfected with the resistance test vector DNA. […] The IC50 values were determined by plotting percent drug inhibition vs. log 10 drug concentration.
Host cells were seeded in 10-cm-diameter dishes and were transfected several days after plating with resistance test vector plasmid DNA and the envelope expression vector. […] HIV capsid protein (p24) levels in the harvested cell culture media were determined by an EIA method as described by the manufacturer (SIAC; Frederick, Md.). […] The inhibitory effect of the drug was determined using the following equation: […]

[2] = test system: HIV-1 RT mutant resistance test vector M41L-T69SSA-T215Y-L210W-V75M-RTV; assay: Phenotypic susceptibility assay, site directed RTV M41L+T69SSA+V75M+L210W+T215Y; settings: RTV with 41 + 69 + 75M + 210 + 215; 1 replicate
Experimental: as §1
(§2) The resistance test vectors containing a functional luciferase gene cassette were constructed and host cells were transfected with the resistance test vector DNA. The resistant test vectors contained patient-derived reverse transcriptase and protease sequences that were either susceptible or resistant to the antiretroviral agents, such as nucleoside reverse transcriptase inhibitors, non-nucleoside reverse transcriptase inhibitors and protease inhibitors. The resistance test vector viral particles produced by transfecting the resistance test vector DNA into host cells, either in the presence or absence of protease inhibitors, were used to infect target host cells grown either in the absence of NRTI or NNRTI or In the presence of increasing concentrations of the drug. The amount of luciferase activIty produced in infected target host cells in the presence of drug was compared to the amount of luciferase produced in infected target host cells in the absence of drug. Drug resistance was measured as the amount of drug required to inhibit by 50% the luciferase activity detected in the absence of drug (Inhibitory concentration 50%, IC50). The IC50 values were determined by plotting percent drug inhibition vs. log 10 drug concentration.
(§3) Host cells were seeded in 10-cm-diameter dishes and were transfected several days after plating with resistance test vector plasmid DNA and the envelope expression vector. Transfections were performed using a calcium-phosphate precipitation procedure. The cell culture media containing the DNA precipitate was replaced with fresh medium, from one to 24 hours, after transfection. Cell culture media containing resistance test vector viral particles was harvested one to four days after transfection and was passed through a […] filter before being stored at −80° C. HIV capsid protein (p24) levels in the harvested cell culture media were determined by an EIA method as described by the manufacturer (SIAC; Frederick, Md.). Before infection, target cells (293 and 293/T) were plated in cell culture media. Control infections were performed using cell culture media from mock transfections (no DNA) or transfections containing the resistance test vector plasmid DNA without the envelope expression plasmid. One to three or more days after infectIon the media was removed and cell lysis buffer (Promega) was added to each well. […] The inhibitory effect of the drug was determined using the following equation:
(§4) % luciferase inhibition=1−(RLUluc[drug]÷RLUluc)×100
(§5) where RLUluc [drug] is the relative light unit of luciferase activity in infected cells in the presence of drug and RLUluc is the Relative Light Unit of luciferase activity in infected cells in the absence of drug. IC50 values were obtained from the sigmoidal curves that were generated from the data by plotting the percent inhibition of luciferase activity vs. the log 10 drug concentration.
(§6) Mutations may be incorporated alone and/or in combination with other known drug resistance mutations that are thought to modulate the susceptibility of HIV to a certain drug or class of drugs. Mutations are introduced into the resistance test vector through any of the widely known methods for site-directed mutagenesis. In one embodiment of this invention the mega-primer PCR method for site-directed mutagenesis is used.

[3] = test system: HIV-1 RT mutant resistance test vector M41L-T69SSA-T215Y-L210W-RTV; assay: Phenotypic susceptibility assay, site directed RTV M41L+T69SSA+L210W+T215Y; settings: RTV with 41 + 69 + 210 + 215; 3 replicates
Experimental: as §1, §2, §3, §4, §5, §6

## Nc1ccn([C@@H]2CS[C@H](CO)O2)c(=O)n1 [3TC, lamivudine]
[1]
  effect on susceptibility (words): decreased susceptibility to 3TC
[2]
  Average fold reduction in susceptibility: 17 fold and 17.10 fold
[3]
  Average fold reduction in susceptibility: 17 fold and 16.99 fold
